Reference: paper PMC3988174
No constants are given. Whether binding was seen depends on the method and setting. Some entries that bind do so weakly or less than the wild type.

B1: Outer Plastid Envelope Protein 16-1 (protein, UniProt Q9ZV24 1-148)
chain: MPSSTFSGTVSTPKLSVAVDMGNPFLNLTVDAFLKIGAVGVTKSLAEDTYKAIDKGSLSKSTLEHALKKLCKEGVYWGAAGGVYIGTEYGIERIRGSRDWKNAMLAGAATGAVLSAVGKKGKDTIVIDAILGGALATASQFVNNHYFY
B2: Thioredoxin F-type 1 (protein, UniProt Q9XFH8 1-178)
chain: MPLSLRLSPSPTALSPTTGGFGPSRKQCRIPYSGVPTTKIGFCSLDSRKRGDSSVVRCSLETVNVSVGQVTEVDKDTFWPIVKAAGEKLVVLDMYTQWCGPCKVIAPKYKALSEKYDDVVFLKLDCNPDNRPLAKELGIRVVPTFKILKDNKVVKEVTGAKYDDLVAAIETARSAASG
B3: Chloroplast chaperonin 10 (protein, UniProt O80504 1-139)
chain: MASTFVCSLPNPFFAFPVKATTPSTANHTLLGSRRGCLRIKAISTKWEPTKVVPQADRVLVRLEDLPIKSSGGVLLPKAAVKFERYLTGEIISVGSEVGQQVGPGKRVLFSDVSAYEVDLGTDARHCFCKESDLLALVE
B4: Ferretin 1 (protein, UniProt Q39101 1-255)
chain: MASNALSSFTAANPALSPKPLLPHGSASPSVSLGFSRKVGGGRAVVVAAATVDTNNMPMTGVVFQPFEEVKKADLAIPITSHASLARQRFADASEAVINEQINVEYNVSYVYHSMYAYFDRDNVAMKGLAKFFKESSEEERGHAEKFMEYQNQRGGRVKLHPIVSPISEFEHAEKGDALYAMELALSLEKLTNEKLLNVHKVASENNDPQLADFVESEFLGEQIEAIKKISDYITQLRMIGKGHGVWHFDQMLLN
B5: Tryptophan synthase, beta subunit 1 (protein, UniProt P14671 1-470)
chain: MAASGTSATFRASVSSAPSSSSQLTHLKSPFKAVKYTPLPSSRSKSSSFSVSCTIAKDPPVLMAAGSDPALWQRPDSFGRFGKFGGKYVPETLMHALSELESAFYALATDDDFQRELAGILKDYVGRESPLYFAERLTEHYRRENGEGPLIYLKREDLNHTGAHKINNAVAQALLAKRLGKKRIIAETGAGQHGVATATVCARFGLECIIYMGAQDMERQALNVFRMRLLGAEVRGVHSGTATLKDATSEAIRDWVTNVETTHYILGSVAGPHPYPMMVRDFHAVIGKETRKQALEKWGGKPDVLVACVGGGSNAMGLFHEFVNDTEVRMIGVEAAGFGLDSGKHAATLTKGDVGVLHGAMSYLLQDDDGQIIEPHSISAGLDYPGVGPEHSFFKDMGRAEYYSITDEEALEAFKRVSRLEGIIPALETSHALAYLEKLCPTLSDGTRVVLNFSGRGDKDVQTVAKYLDV
B6: Protein LURP-one-related 15 Protein (protein, UniProt Q9LZX1 1-217)
chain: MEQPYVYAYPQGSGPSGAPTPQAGGVVVDPKYCAPYPIDMAIVRKMMSLTDGNFVITDVNGNLLFKVKEPVFGLHDKRVLLDGSGTPVVTLREKMVSMHDRWQVFRGGSTDQRDLLYTVKRSSMLQLKTKLDVFLGHNKDEKRCDFRVKGSWLERSCVVYAGESDAIVAQMHRKHTVQSVFLGKDNFSVTVYPNVDYAFIASLVVILDDVNREDRAA
B7: Glutathione S-transferase PHI 2 (protein, UniProt P46422 1-212)
chain: MAGIKVFGHPASIATRRVLIALHEKNLDFELVHVELKDGEHKKEPFLSRNPFGQVPAFEDGDLKLFESRAITQYIAHRYENQGTNLLQTDSKNISQYAIMAIGMQVEDHQFDPVASKLAFEQIFKSIYGLTTDEAVVAEEEAKLAKVLDVYEARLKEFKYLAGETFTLTDLHHIPAIQYLLGTPTKKLFTERPRVNEWVAEITKRPASEKVQ
B8: Translationally controlled tumor protein (protein, UniProt P31265 1-168)
chain: MLVYQDLLTGDELLSDSFPYKEIENGILWEVEGKWVTVGAVDVNIGANPSAEEGGEDEGVDDSTQKVVDIVDTFRLQEQPTYDKKGFIAYIKKYIKLLTPKLSEEDQAVFKKGIEGATKFLLPRLSDFQFFVGEGMHDDSTLVFAYYKEGSTNPTFLYFAHGLKEVKC
B9: Fe superoxide dismutase 1 (protein, UniProt P21276 1-212)
chain: MAASSAVTANYVLKPPPFALDALEPHMSKQTLEFHWGKHHRAYVDNLKKQVLGTELEGKPLEHIIHSTYNNGDLLPAFNNAAQAWNHEFFWESMKPGGGGKPSGELLALLERDFTSYEKFYEEFNAAAATQFGAGWAWLAYSNEKLKVVKTPNAVNPLVLGSFPLLTIDVWEHAYYLDFQNRRPDYIKTFMTNLVSWEAVSARLEAAKAASA
B10: AIG2-like avirulence induced gene family protein (protein, UniProt Q9MBH2 1-169)
chain: MTSSDKSLSHDVFVYGSFQEPSVVNLILECSPVMVPAQLHGYHVYRLKGRLHACISPSENGLINGKILTGLTDSQLENLDMIEGSEYVRKTVEVVLTDTSEKKQVETYVWANKDDPNLYGEWDFEEWRRLHMDKFIEASTKFIEWKKNPDGRSREEFEKFVFDDPPTAA
B11: Oxygen-evolving enhancer protein 3-2 (protein, UniProt Q41932 1-230)
chain: MAQAVTSMAGLRGASQAVLEGSLQINGSNRLNISRVSVGSQRTGLVIRAQQNVSVPESSRRSVIGLVAAGLAGGSFVKAVFAEAIPIKVGGPPLPSGGLPGTDNSDQARDFSLALKDRFYIQPLSPTEAAARAKDSAKEIINVKSFIDKKAWPYVQNDLRLRASYLRYDLNTVISAKPKEEKQSLKDLTAKLFQTIDNLDYAARSKSSPDAEKYYSETVSSLNNVLAKLG
B12: Photosystem II subunit T (protein, UniProt Q39195 1-103)
chain: MASMTMTATFFPAVAKVPSATGGRRLSVVRASTSDNTPSLEVKEQSSTTMRRDLMFTAAAAAVCSLAKVAMAEEEEPKRGTEAAKKKYAQVCVTMPTAKICRY
B13: Ferredoxin-thioredoxin reductase subunit A (protein, UniProt Q9SJ89 1-146)
chain: MNLQAVSCSFGFLSSPLGVTPRTSFRRFVIRAKTEPSEKSVEIMRKFSEQYARRSGTYFCVDKGVTSVVIKGLAEHKDSYGAPLCPCRHYDDKAAEVGQGFWNCPCVPMRERKECHCMLFLTPDNDFAGKDQTITSDEIKETTANM
B14: Photosystem II reaction center PSB28 protein (protein, UniProt Q8W0Y8 1-183)
chain: MACVRSIGSLTSVNHSQRNVPRSGIVLSSCSVLPIKSSSFTGSPVSLPRAQPSSRTALRPMKPVSITMMVKPALQFIQGTDEMTIPDVKLTRSRDGSNGMALFSFDQPSVFDSSGEVGEITGLYMIDEEGVIQSTDVNARFVNGKPEGIVAKHIMRSPKEWDRFMRFMERYSDQNGLQFVKKQ
B15: CCR-like protein (protein, UniProt Q96500 1-141)
chain: MQGALFIKPTILLPLPSSVSSPKLTFLLPHATKASRLSSLRSNNSSSSSSLTSDPNTVDYNSSILSVFPAEACEVISGYACSADIYPEVKLDTKPVSRPVASEPVDREYEEYNSPKTVFREEACDDLGGEFCEPDFQKDAN
B16: 5′-Adenylylsulfate reductase 2 (protein, UniProt P92981 1-454)
chain: MALAVTSSSTAISGSSFSRSGASSESKALQICSIRLSDRTHLSQRRYSMKPLNAESHSRSESWVTRASTLIAPEVEEKGGEVEDFEQLAKKLEDASPLEIMDKALERFGDQIAIAFSGAEDVALIEYARLTGKPFRVFSLDTGRLNPETYRLFDAVEKQYGIRIEYMFPDAVEVQALVRNKGLFSFYEDGHQECCRVRKVRPLRRALKGLKAWITGQRKDQSPGTRSEIPIVQVDPVFEGLDGGVGSLVKWNPLANVEGADVWNFLRTMDVPVNALHAQGYVSIGCEPCTRPVLPGQHEREGRWWWEDAKAKECGLHKGNIKEEDGAADSKPAAVQEIFESNNVVALSKGGVENLLKLENRKEAWLVVLYAPWCPFCQAMEASYIELAEKLAGKGVKVAKFRADGEQKEFAKQELQLGSFPTILLFPKRAPRAIKYPSEHRDVDSLMSFVNLLR
B17: Plastid transcriptionally active 4 (protein, UniProt O80796 1-330)
chain: MALKASPVTGLFPPLRPTASSSPSTSSNRPCSLRILPLRTSFFGNSSGALRVNVLRLACDNRLRCNGHGATMNLFERFSRVVKSYANALISSFEDPEKILEQTVIEMNSDLTKMRQATAQVLASQKQLQNKYKAAQQSSDDWYKRAQLALAKGDEDLAREALKRRKSFADNATALKTQLDQQKGVVDNLVSNTRLLESKIQEAKAKKDTLLARARTAKTATKVQEMIGTVNTSGALSAFEKMEEKVMAMESEADALTQIGTDELEGKFQMLETSSVDDDLADLKKELSGSSKKGELPPGRSTVAASTRYPFKDSEIENELNELRRKANDF
B18: NADH dehydrogenase (ubiquinone) 1 alpha−subcomplex 5 (protein, UniProt Q9FLX7 1-169)
chain: MFLRAIGRPLLAKVKQTTGIVGLDVVPNARAVLIDLYSKTLKEIQAVPEDEGYRKAVESFTRQRLNVCKEEEDWEMIEKRLGCGQVEELIEEARDELTLIGKMIEWDPWGVPDDYECEVIENDAPIPKHVPQHRPGPLPEQFYKTLEGLIAESKTEIPAATPSDPQLKE
B19: Putative 3-dehydroquinate synthase (protein, UniProt Q8VYV7 1-442)
chain: MAANTISLSNVAASKNLNSFQSRAFIAPPTIFFPVASAKSKPGELSLSSTTLSRSRVRAGASQLMNEPLNDQRSISSPTVVEVDLGDRSYPIYIGAGLLDHSELLQRHVHGKRVLVVTNDRVAPLYLDKTIDALTRGNPNVTVESVILPDGEKYKDMDTLMKVFDKAIESRLDRRCTFVALGGGVIGDMCGYAAASYLRGVNFIQIPTTVMAQVDSSVGGKTGINHRLGKNLIGAFYQPQCVLVDTDTLNTLPDREMASGLAEVIKYGLIRDAEFFEWQEKNIEALLARDPAALAFAIKRSCENKADVVSQDEKESGLRATLNLGHTFGHAIETGFGYGEWLHGEAVAAGTVMAVDMSYRLGWIDESIVKRVNKILVRAKLPTTPPESMTVSMFKSIMAVDKKVADGLLRLILLKGPLGNCVFTGDYDREALDATLRAFSKS
B20: GLNB1-like protein (protein, UniProt Q9ZST4 1-196)
chain: MAASMTKPISITSLGFYSDRKNIAFSDCISICSGFRHSRPSCLDLVTKSPSNNSRVLPVVSAQISSDYIPDSKFYKVEAIVRPWRIQQVSSALLKIGIRGVTVSDVRGFGAQGGSTERHGGSEFSEDKFVAKVKMEIVVKKDQVESVINTIIEGARTGEIGDGKIFVLPVSDVIRVRTGERGEKAEKMTGDMLSPS
B21: Dehydrin family protein (protein, UniProt Q9SLJ2 1-98)
chain: MAGLINKIGDALHIGGGNKEGEHKKEEEHKKHVDEHKSGEHKEGIVDKIKDKIHGGEGKSHDGEGKSHDGEKKKKKDKKEKKHHDDGHHSSSSDSDSD

Biological target: atToc132 A- plus G-domains bait (Arabidopsis thaliana) (UniProt Q9SLF3)
Assay: two-hybrid; pairwise split-ubiquitin yeast two-hybrid of isolated NubG-preys with Toc159G, Toc132G or Toc132AG bait in NMY51; growth on SD-LWHA (3-AT) and quantitative β-Gal assay, activity relative to a reference bait set to 100%

| Binder | binding |
| --- | --- |
| B1 | binds |
| B2 | binds |
| B3 | binds |
| B4 | binds |
| B5 | binds |
| B6 | binds |
| B7 | binds |
| B8 | binds |
| B9 | binds |

Biological target: atToc132 A- plus G-domains bait (Arabidopsis thaliana) (UniProt Q9SLF3)
Assay: two-hybrid; split-ubiquitin membrane-based yeast two-hybrid library screen in S. cerevisiae NMY51; bait fused to Cub-LexA-VP16 (pBT3-STE), Arabidopsis seedling cDNA library preys fused to NubG; selection on SD-LWHA with 3-AT; hits re-streaked, retransformed with the same bait, X-Gal filter assay

| Binder | binding |
| --- | --- |
| B10 | binds |
| B11 | binds |
| B12 | binds |
| B13 | binds |
| B14 | binds |
| B15 | binds |
| B16 | binds |
| B17 | binds |
| B18 | binds |
| B19 | binds |
| B20 | binds |
| B21 | binds |
